{"source": "patent US9817001B2", "about": "“Methods for determining LDL cholesterol treatment” (Boston Heart Diagnostics Corporation, priority 2008, dated 2017)", "origin": "cited, not measured here", "tested_on": "HDL particle profile (α-1 HDL, preβ-1 HDL)", "conditions": "80 mg/day versus 40 mg/day"}
{"smiles": "CC(C)c1c(C(=O)Nc2ccccc2)c(-c2ccccc2)c(-c2ccc(F)cc2)n1CC[C@@H](O)C[C@@H](O)CC(=O)O", "note": "[atorvastatin]", "values": [{"measurement": "capacity for increasing the α-1 HDL level", "result": "less capacity"}]}
